Among all 340,000 compounds or so, about 170 (0.05%) were called active. The shares of active, inactive and inconclusive entries below differ from those in the screen. Calls come from the whole dose curve; as a rule, active = well fitted inhibition curve with a large enough effect in the signal ratio, with a control signal flat (not every such curve was filed as active); inconclusive = small, poorly fitted or top-dose-only effect, or effect the other way, or a change in a side signal; inactive = flat fitted curve, though single readings scatter; the % refers to the signal ratio. A potency beside an inconclusive call is a rough fit, not a confirmed value.
Assay: qHTS Assay to Find Inhibitors of Chronic Active B-Cell Receptor Signaling;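 for activity change, negative = inhibition: plate controls were basal doxycycline-induced cells for no effect and cells given 10 µM MG132 for full effect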
Conditions: ABC-DLBCL IkBa-CBG/CBR reporter, luminescence ratio (green luciferase fused to IkBa over red control in TMD8 lymphoma cells), 4 h; activity change, negative = inhibition: at 46.1 µM (top of the series)
Summary of the method: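 Concentration-response series (up to 46 uM) were applied to TMD8 dual-reporter cells for 4 h at 37C with doxycycline. Green/red ratio, after filter-overlap correction, defined %Activity; red signal alone was normalised to basal cells and zero luminescence.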
In the case of `COc1cc(/C=c2/sc3nc(-c4ccccc4)c(-c4ccccc4)n3c2=O)cc(OC)c1OC`, the activity change, negative = inhibition is reported as inconclusive: -9.19%. For `O=C(C[n+]1ccccc1)Nc1c(Cl)cc(Cl)cc1Cl`, the Potency was inconclusive: 28.2 µM [falling, single point]. With `CN(C)CCN(C(=O)c1ccc2c(c1)OCCO2)c1nc2c(Cl)cccc2s1` the activity change, negative = inhibition was “inactive”. With `COc1ccc(OC)c(-c2csc(NC(=O)CSc3nnnn3C)n2)c1` the activity change, negative = inhibition was “inactive”. For `O=C(N/N=C/c1cc(Br)ccc1O)c1ccncc1`, the activity change, negative = inhibition was “inactive”. In the case of `CC1CNCCN1S(=O)(=O)c1cccc2cnccc12` (stereo not drawn), the Potency is reported as inconclusive: 29.1 µM [rising, single point]. For `O=C(c1ccccc1)[C@@H]1[C@@H](C(=O)c2ccc(F)cc2)[C@@]2(C(=O)Nc3ccccc32)[C@H]2c3ccccc3C=CN12`, the activity change, negative = inhibition was inconclusive: 4.5%. With `C#CCNC(=O)/C=C/c1ccc(C)cc1` the activity change, negative = inhibition was “inactive”. For `COc1ccc(NC(=O)N2C3CCCC2CC(NC(=O)c2ccccc2)C3)cc1` (stereo not drawn), the activity change, negative = inhibition was “inactive”. In the case of `COc1ccc(C2CC(c3ccccc3OC(=O)/C=C/c3ccccc3)=NN2C(C)=O)cc1` (stereo not drawn), the activity change, negative = inhibition is reported as “inactive”. For `O=C(Nc1ccc(C(=O)NCc2ccccc2)cc1)C1=CSCCO1`, the activity change, negative = inhibition was inconclusive: 1.44%. For `C#CCOc1ccc(OC)cc1C(c1c(C)[nH][nH]c1=O)c1c(C)[nH][nH]c1=O`, the activity change, negative = inhibition was “inactive”. For `CCNCC(=O)N1c2ccccc2CCc2ccc(NC(C)=O)cc21`, the activity change, negative = inhibition was inconclusive: 6.73%. In the case of `COC(=O)CC(N)c1ccc(OC)c2ccccc12` (stereo not drawn), the activity change, negative = inhibition is reported as inconclusive: -10.1%. With `COc1ccc(CNC(=O)COC(=O)CCC(=O)c2cccs2)cc1` the activity change, negative = inhibition was inconclusive: 5.37%. With `Cc1cccc(CN2CCN(C(c3ccccc3)c3ccc(Cl)cc3)CC2)c1` (stereo not drawn) the Potency was inconclusive: 22.4 µM [rising, single point]. For `CC1CCN(C(=O)COC(=O)c2cc3ccccc3oc2=O)CC1`, the activity change, negative = inhibition was inconclusive: 2.19%. For `O=C(CCCN1C(=O)C2CC=CCC2C1=O)Nc1cccc(F)c1` (stereo not drawn), the activity change, negative = inhibition was inconclusive: 4.67%. With `O=C(O)c1ccc(OCc2cn3ccccc3n2)cc1` the Potency was inconclusive: 3.16 µM [rising, partial curve, poor fit]. For `Cc1c(C)n(C)c2ccc(C(=O)NCCc3ccco3)cc12`, the Potency was inconclusive: 11.2 µM [falling, partial curve]. In the case of `CC(=O)c1sc(NC(=O)C2CC(=O)N(Cc3ccccc3)C2)nc1-c1ccccc1` (stereo not drawn), the activity change, negative = inhibition is reported as inconclusive: 12.9%. With `COc1ccc(COC(=O)N/N=C(\C)CC(=O)Nc2ccc(Cl)cc2)cc1` the activity change, negative = inhibition was inconclusive: -11.2%. In the case of `O=C(Nc1ccc(S(=O)(=O)Nc2ncccn2)cc1)c1ccco1`, the activity change, negative = inhibition is reported as inconclusive: -9.79%. With `Cc1ccc(SCc2[nH]nc3c2C2(C(=O)Nc4ccc(F)cc42)C(C#N)=C(N)O3)cc1` (stereo not drawn) the Potency was inconclusive: 23.1 µM [falling, single point]. For `Cc1c(NC(=S)Nc2cccc(Cl)c2)c(=O)n(-c2ccccc2)n1C`, the activity change, negative = inhibition was inconclusive: 5.68%. With `CS(=O)(=O)N1CCc2cc(C(=O)Nc3ccc(Br)cc3)ccc21` the activity change, negative = inhibition was inconclusive: 2.75%. With `O=C(O)c1cccc(N/N=C/c2cccc3ccccc23)c1` the activity change, negative = inhibition was inconclusive: 338%. For `CC(=C/C(=O)O)/C=C/c1ccco1`, the Potency was inconclusive: 20.6 µM [falling, single point]. With `CC(Oc1ccc(F)cc1)C(=O)Nc1ccccc1N1CCCCC1` (stereo not drawn) the activity change, negative = inhibition was “inactive”. In the case of `O=S(=O)(NC1CCCCC1)c1ccc(N2CCOCC2)nc1`, the activity change, negative = inhibition is reported as inconclusive: -0.697%. In the case of `O=C(NNc1c2ccccc2nc2ccccc12)c1cccc(O)c1`, the activity change, negative = inhibition is reported as inconclusive: -28.5%. For `CC1=CC(C)(C)N2C(=O)C3(C(C#N)=C(N)OC4=C3C(=O)CC(C)(C)C4)c3c(C)c(C)cc1c32` (stereo not drawn), the activity change, negative = inhibition was inconclusive: -1.31%. With `COc1ccc(Cc2nc(-c3ccncc3)no2)cc1` the activity change, negative = inhibition was inconclusive: 12.3%. With `CCOc1ccc(/C=N/N(C)c2ccccc2)cc1OC` the activity change, negative = inhibition was inconclusive: -0.675%. In the case of `Cc1ccc(S(=O)(=O)C(CNS(=O)(=O)c2ccc(F)c(C(F)(F)F)c2)c2ccco2)cc1` (stereo not drawn), the activity change, negative = inhibition is reported as inconclusive: -13.2%. With `COc1ccc(N2C(=O)c3cc4ccccc4cc3C2=O)cc1` the activity change, negative = inhibition was inconclusive: -0.219%. In the case of `COc1ccc(NC(=S)NNC(=O)c2nnn(-c3ccccc3)c2C)cc1`, the activity change, negative = inhibition is reported as “inactive”. With `CC(=O)N(/N=C1\Sc2ccccc2C1=O)c1cccc(C)c1` the Potency was inconclusive: 3.16 µM [falling, single point]. With `COc1cc(C(=O)N/N=C/c2ccc(OC(=O)c3ccccc3Cl)cc2)ccc1O` the Potency was inconclusive: 20 µM [falling, single point]. With `CC(=O)Nc1ccc(NC(=O)CC(NC(=O)c2ccccc2)c2ccccc2)cc1` (stereo not drawn) the activity change, negative = inhibition was “inactive”. In the case of `C[n+]1cccc(C(=O)NCC2CCCO2)c1` (stereo not drawn), the activity change, negative = inhibition is reported as “inactive”. For `C=CCn1c(=O)c2c(nc3n2CCCN3Cc2ccccc2)n(C)c1=O`, the activity change, negative = inhibition was inconclusive: 1.97%. With `O=C1C(=O)N(CCN2CCOCC2)C(c2cccc(Cl)c2)/C1=C(\O)c1ccc2c(c1)OCCO2` (stereo not drawn) the activity change, negative = inhibition was “inactive”. In the case of `O=C(Cc1ccccc1)Nc1ccc(N2CCOCC2)cc1`, the activity change, negative = inhibition is reported as inconclusive: -1.43%. With `CC(C)(C)C(=O)Nc1cccc(-c2nnc(-c3cccc(NC(=O)C(C)(C)C)c3)o2)c1` the activity change, negative = inhibition was “inactive”. In the case of `O=C(NCCc1ccccc1)c1cnc2ccccn2c1=O`, the Potency is reported as inconclusive: 28.2 µM [falling, partial curve]. With `O=C(OCc1ccccc1)/C(=C/c1cccc2ccccc12)NC(=O)c1ccccc1` the activity change, negative = inhibition was “inactive”. For `CCOC(=O)C(C)c1nc2ccccc2[nH]c1=O` (stereo not drawn), the Potency was inconclusive: 2.59 µM [rising, full curve, poor fit]. In the case of `Cc1ccc(NS(=O)(=O)c2cccc(C(=O)NCC(c3ccc(F)cc3)N3CCOCC3)c2)cc1` (stereo not drawn), the activity change, negative = inhibition is reported as inconclusive: -19.7%. In the case of `CSc1ccc(/C=C/C(=O)c2ccc(NC(=O)C(C)C)cc2)cc1`, the Potency is reported as inconclusive: 28.2 µM [falling, single point]. For `O=C(CCc1nc2ccccc2c(=O)[nH]1)Nc1cccc(S(=O)(=O)N2CCCCC2)c1`, the activity change, negative = inhibition was inconclusive: -9.1%. In the case of `Cc1ccc(C(=O)NCC(=O)Nc2ccc(Cl)cc2)s1`, the activity change, negative = inhibition is reported as inconclusive: -11.8%. With `O=[N+]([O-])c1ccc(Cl)c(S(=O)(=O)Nc2ccc(-c3ccc(N4CCOCC4)nn3)cc2)c1` the activity change, negative = inhibition was inconclusive: 1.89%. With `Cc1cc(=O)oc2cc(OCC(=O)Nc3c(Cl)cccc3C(F)(F)F)ccc12` the activity change, negative = inhibition was inconclusive: 5.33%. In the case of `CSc1ccccc1-c1nc(-c2ccncc2)no1`, the Potency is reported as inconclusive: 15.8 µM [falling, single point]. In the case of `COc1ccc(S(=O)(=O)N[C@@H](C)C(=O)OCC(=O)Nc2cc3oc4ccccc4c3cc2OC)cc1`, the activity change, negative = inhibition is reported as “inactive”. With `COC(=O)Cc1c(O)ccn(CCc2c[nH]c3ccccc23)c1=O` the activity change, negative = inhibition was “inactive”. With `Cc1cccc(C(=O)OCC(=O)c2c(N)n(CC(C)C)c(=O)n(C)c2=O)c1O` the activity change, negative = inhibition was inconclusive: 25.6%. With `COc1ccccc1N1CC(C(=O)Nc2nnc(SCC(=O)NC(C)C)s2)CC1=O` (stereo not drawn) the activity change, negative = inhibition was “inactive”. For `O=C(NCCC1=CCCCC1)c1ccc(=O)oc1`, the activity change, negative = inhibition was “inactive”. In the case of `CC(C)COCc1ccc(O)c2ncccc12`, the Potency is reported as inconclusive: 35.5 µM [cytotoxic, single point]. In the case of `CCCn1c(NC(=O)c2ccc(C)cc2)nc2ccccc21`, the activity change, negative = inhibition is reported as inconclusive: 11.2%. With `O=C(CSc1ncn[nH]1)OCN1C(=O)c2ccccc2C1=O` the activity change, negative = inhibition was inconclusive: 5.07%. For `Cc1occc1C(=O)Nc1ccc(Br)cc1F`, the activity change, negative = inhibition was inconclusive: -16.8%. In the case of `CCC(C)Nc1nc(CN2CCOCC2)nc2sc3c(c12)CCC3` (stereo not drawn), the activity change, negative = inhibition is reported as inconclusive: -6.78%. With `CCc1cc2cc(C(=O)Nc3ccccc3F)sc2s1` the Potency was inconclusive: 1.84 µM [rising, full curve, poor fit]. With `Cc1ccc(Nc2ncnc3c2cnn3C)cc1` the activity change, negative = inhibition was “inactive”. For `Cc1ccc(S(=O)(=O)C(CNC(=O)C(=O)NCc2ccc(Cl)cc2)c2ccco2)cc1` (stereo not drawn), the activity change, negative = inhibition was inconclusive: -1.11%. In the case of `COc1ccc(OCC(=O)Nc2ccc3oc(=O)ccc3c2)cc1`, the activity change, negative = inhibition is reported as inconclusive: 12.9%. For `CCOc1ccc(-n2c(=O)c3c(C)c(C(=O)N(C)C)sc3n(Cc3cc(C)ccc3C)c2=O)cc1`, the activity change, negative = inhibition was “inactive”. For `Fc1ccccc1-c1cc2ncccc2cn1`, the activity change, negative = inhibition was inconclusive: -0.72%. For `COc1cccc(NC(=S)Nc2ccc(Br)cc2Cl)c1`, the activity change, negative = inhibition was inconclusive: 25%. In the case of `COc1ccc(C(CNC(=O)c2ccc(-c3ccccc3Cl)o2)N2CCOCC2)cc1` (stereo not drawn), the Potency is reported as inconclusive: 25.9 µM [falling, single point]. For `CCCCNC(=O)O[C@@H]1C[C@@H]2CCN3C(=O)CCC[C@H]([C@H]1CC)[C@H]23`, the activity change, negative = inhibition was “inactive”. With `CCCC(C(=O)NCCC(C)C)N(Cc1ccc(OC)cc1)C(=O)c1snc(C(N)=O)c1N` (stereo not drawn) the activity change, negative = inhibition was inconclusive: -16.9%. For `COc1ccc(N2CCN(c3ncnc4c3nnn4C)CC2)cc1`, the Potency was inconclusive: 14.1 µM [falling, partial curve, poor fit]. For `O=C(CCSc1nc(-c2ccc3c(c2)OCO3)cc(C(F)(F)F)n1)NCc1ccco1`, the activity change, negative = inhibition was inconclusive: 18.3%. In the case of `Oc1oc(-c2ccccc2Br)nc1/C=N/c1ccccn1`, the Potency is reported as inconclusive: 10 µM [falling, partial curve]. In the case of `CC(NCc1ccccc1OC1CCCC1)c1ccccc1` (stereo not drawn), the activity change, negative = inhibition is reported as inconclusive: -11.8%. In the case of `CCN(C(=O)CCc1nc(-c2ccc(OC)cc2)no1)c1cc(OC)ccc1OC`, the Potency is reported as inconclusive: 29.1 µM [falling, single point]. In the case of `O=S(=O)(O)c1nc2ccccc2n1CCOc1ccccc1`, the activity change, negative = inhibition is reported as inconclusive: 7.72%. With `COc1ccc(C(=O)Nc2ccc(S(=O)(=O)N3CCN(C)CC3)cc2)cc1[N+](=O)[O-]` the activity change, negative = inhibition was inconclusive: 0.038%. With `Cc1ccc2nc3c(c(Nc4cccc(O)c4)c2c1)CCC3` the activity change, negative = inhibition was inconclusive: -6.57%.
Potency is the fitted concentration of half-maximal effect.
